The other results are listed elsewhere or left out. These are further read-outs of the screen, such as a control signal, another cell line or another target. No call is given for them. The list favours compounds with an active or inconclusive main result. The note in brackets gives the kind of curve behind each potency; many fits are weak.
Assay: qHTS Assay for Lipid Storage Modulators in Drosophila S3 Cells;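 as to cell number change: cells counted by Cell Tracker Red CMTPX staining in the red channel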
Settings: BODIPY lipid droplet fluorescence, 18-24 h; for cell number change: measured here: cell count max response, cells fed with added oleic acid
In short: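 Laser-scanning cytometry quantifies lipid droplet accumulation (500–530 nm total intensity; droplet/cell object ratio) in oleic acid-fed (400 uM added) Drosophila S3 cells treated with a concentration series. 20 uM Triacsin C defined 100% inhibition.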

[1] = measured here: cell number channel AC50, cells fed with added oleic acid
[2] = measured here: lipid fluorescence (Fed channel) AC50, cells fed with added oleic acid

Row | SMILES | cell number change | AC50 [1] | AC50 [2]
1 | CCCN(N=Nc1cccc([N+](=O)[O-])c1)c1cccc([N+](=O)[O-])c1 | 31.6% | 18.4 µM [rising, single point] | 6.51 µM [rising, single point]
2 | O=C(CCN1C(=O)CSc2ccccc21)Nc1ccc(OC(F)(F)F)cc1 | -7.06% | 2.31 µM [falling, partial curve] | –
3 | COc1ccc(-c2cn(Cc3ccc4ccccc4c3)nn2)cc1 | 47.2% | 8.2 µM [rising, partial curve, poor fit] | 29.1 µM [rising, single point]
4 | Cn1c2ccccc2n2c(=O)c(=O)n(CC(=O)c3ccc(Cl)cc3)nc12 | -42.3% | 29.1 µM [falling, single point] | 29.1 µM [falling, single point]
5 | O=C(CSc1ccc2c(c1)OCCO2)NC(=O)NC1CCCC1 | 1.7% | – | –
6 | CC(=O)NC(Cc1ccc(F)cc1)C(=O)N1CCN(C(=O)NCc2ccccc2)CC1 (centres undefined) | -4.02% | 3.26 µM [rising, single point] | 2.59 µM [rising, single point]
7 | CCC(C(=O)O)n1c2ccccc2c2cn[nH]c(=O)c21 (centres undefined) | -2.13% | – | 6.51 µM [rising, single point]
8 | CCn1cc(C(=O)N2CCCc3ccccc32)c2cc(OC)c(OC)cc2c1=O | 41.1% | 8.2 µM [rising, partial curve] | –
9 | CCC(C)OC(=O)C1=C(C)NC(=O)NC1c1ccc(F)cc1 (centres undefined) | -31.2% | 4.11 µM [falling, single point] | 6.51 µM [falling, single point]
10 | Cc1cccc(N2CC(C(=O)OCC(=O)c3ccc(OC(=O)c4cccs4)cc3)CC2=O)c1C (centres undefined) | 48.3% | 29.1 µM [rising, single point] | 23.1 µM [falling, partial curve]
11 | COc1cc(O)c(C(CC(=O)N2CCCCC2)c2ccc(N(C)C)cc2)c(OC)c1 (centres undefined) | 26.5% | – | 0.58 µM [rising, single point]
12 | COc1ccc(S(=O)(=O)N(C)C)cc1NC(=O)CSC(C)C(=O)Nc1cc(C)on1 (centres undefined) | -39.9% | – | 32.6 µM [falling, partial curve, poor fit]
13 | Cc1c(-c2ccc(F)cc2)nc(N)c(C#N)c1-c1ccco1 | 1.81% | – | –
14 | COc1cccc(NC(=S)Nc2ccc(F)cc2)c1 | -7.42% | – | 23.1 µM [rising, single point]
15 | C=CC[n+]1cccc(-c2cc3ccc(C)cc3[nH]2)c1 | – | 0.58 µM [falling, single point] | –
16 | O=C(CCSc1ccccc1)N1CCN(c2ccccc2)CC1 | – | – | 0.651 µM [rising, single point]
17 | CCOC(=O)C1=C(C)NC(=O)NC1c1ccc(Br)o1 (centres undefined) | -1.01% | 0.291 µM [rising, partial curve, poor fit] | –
18 | O=C(O)CSc1cccc[n+]1[O-] | -27.4% | 0.0517 µM [falling, full curve, poor fit] | 2.91 µM [falling, full curve, poor fit]

Some entries already given, showing only cell number change.
Row | SMILES | cell number change
10 | Cc1cccc(N2CC(C(=O)OCC(=O)c3ccc(OC(=O)c4cccs4)cc3)CC2=O)c1C (centres undefined) | 48.3%
11 | COc1cc(O)c(C(CC(=O)N2CCCCC2)c2ccc(N(C)C)cc2)c(OC)c1 (centres undefined) | 26.5%

Continuation:

Row | SMILES | cell number change | AC50 [1] | AC50 [2]
19 | Cc1ccc(Cl)cc1N(CC(=O)NC1CCCCC1)S(C)(=O)=O | 1.62% | – | 32.6 µM [falling, single point]
20 | O=C(NCc1ccccc1)c1onc(CSc2ccc(Cl)cc2)c1C(=O)NCc1ccccc1 | 9.02% | – | 0.517 µM [rising, partial curve]
21 | CC(C)c1ccc(NC2CCCN(C(=O)c3ccnc(Cl)c3)C2)cc1 (centres undefined) | 16% | – | 29.1 µM [rising, single point]
22 | CCc1nnc(NC(=O)C2CCCCN2S(=O)(=O)c2ccccc2)s1 (centres undefined) | -9.02% | 0.164 µM [falling, full curve, poor fit] | –
23 | C[C@@]12C(=O)OC(=O)[C@]1(C)C1CCC2O1 | 0.693% | – | 29.1 µM [rising, single point]
24 | CN1CCN(CC(=O)Nc2cccc(S(=O)(=O)N(C)c3ccccc3)c2)CC1 | -20.6% | – | 8.2 µM [falling, partial curve, poor fit]
25 | CC(C)NC(=O)c1cc(-c2cccs2)nc2ccccc12 | 18.2% | – | 1.46 µM [rising, full curve, poor fit]
26 | N#Cc1cc(-c2ccccc2)cnc1Sc1ccc(Cl)cc1 | 19.7% | – | 0.82 µM [falling, full curve, poor fit]
27 | COC(=O)CN(c1cccc(OC)c1)S(C)(=O)=O | – | – | 0.58 µM [falling, single point]
28 | Cc1ccc(OCC(=O)Nc2nnc(S(=O)(=O)N3CCCCC3)s2)cc1 | 11.6% | – | 0.0058 µM [falling, full curve, poor fit]
29 | CCc1cc2c(COC(=O)c3cccc(NS(C)(=O)=O)c3)cc(=O)oc2cc1O | 13.8% | – | 4.61 µM [falling, partial curve]
30 | CN(CC(=O)Nc1cccc(F)c1)C(=O)CN1c2cccc3cccc(c23)S1(=O)=O | -23.6% | – | 0.231 µM [falling, full curve]
31 | Cc1cccc(-c2nc3c(c(SCC(=O)N4CCOCC4)n2)Cc2c(CO)cnc(C)c2O3)c1 | -15.8% | – | 0.651 µM [falling, full curve]
32 | Cc1ccc2nc3c(cc(C(=O)NCCc4ccccc4)c(=N)n3CCCN3CCOCC3)c(=O)n2c1 | 13.7% | – | 0.259 µM [falling, full curve]
33 | CC(OC(=O)c1ccc2c(=O)n3c(nc2c1)CCCCC3)C(N)=O (centres undefined) | 0.308% | 0.092 µM [falling, full curve, poor fit] | 0.184 µM [falling, full curve, poor fit]
34 | Cc1ccc(C2(C)NC(=O)N(CC(=O)NCCC3=CCCCC3)C2=O)cc1 (centres undefined) | -41.6% | – | 0.0206 µM [falling, full curve, poor fit]
35 | COc1ccc(CN(C)C(=O)COC(=O)c2c(C)nn(-c3ccc(F)cc3)c2Cl)cc1 | -52.5% | 25.9 µM [falling, partial curve] | 2.91 µM [falling, partial curve, poor fit]
